Consider two substances from paper PMC10219569.

The chains behind the UniProt entries cited, without tags or fusion partners.
UniProt Q9NNX6: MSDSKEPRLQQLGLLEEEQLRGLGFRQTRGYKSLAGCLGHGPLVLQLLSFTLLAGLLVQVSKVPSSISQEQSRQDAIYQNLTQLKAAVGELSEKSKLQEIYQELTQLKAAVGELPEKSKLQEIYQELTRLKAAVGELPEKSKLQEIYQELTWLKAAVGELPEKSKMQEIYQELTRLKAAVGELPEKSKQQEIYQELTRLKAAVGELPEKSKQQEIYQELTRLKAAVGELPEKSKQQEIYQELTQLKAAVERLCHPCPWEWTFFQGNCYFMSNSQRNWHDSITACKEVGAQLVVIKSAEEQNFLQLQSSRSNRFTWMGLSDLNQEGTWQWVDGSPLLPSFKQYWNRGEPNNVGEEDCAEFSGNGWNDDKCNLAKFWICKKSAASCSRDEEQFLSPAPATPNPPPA

For assay [1], the target named is GST-LC3A (UniProt Q9H492). The assay is described as follows: pull-down; HEK293T cells co-transfected with DC-SIGN WT and GST-LC3 constructs; cells engaged or not with DC-SIGN mAbs (5 ug/mL) for 30 min; lysates incubated with glutathione-sepharose beads 3 h at 4 C; blot with anti-DC-SIGN.
The target of assay [2] is T1, HA-ATG9 (UniProt Q7Z3C6).
T1 sequence: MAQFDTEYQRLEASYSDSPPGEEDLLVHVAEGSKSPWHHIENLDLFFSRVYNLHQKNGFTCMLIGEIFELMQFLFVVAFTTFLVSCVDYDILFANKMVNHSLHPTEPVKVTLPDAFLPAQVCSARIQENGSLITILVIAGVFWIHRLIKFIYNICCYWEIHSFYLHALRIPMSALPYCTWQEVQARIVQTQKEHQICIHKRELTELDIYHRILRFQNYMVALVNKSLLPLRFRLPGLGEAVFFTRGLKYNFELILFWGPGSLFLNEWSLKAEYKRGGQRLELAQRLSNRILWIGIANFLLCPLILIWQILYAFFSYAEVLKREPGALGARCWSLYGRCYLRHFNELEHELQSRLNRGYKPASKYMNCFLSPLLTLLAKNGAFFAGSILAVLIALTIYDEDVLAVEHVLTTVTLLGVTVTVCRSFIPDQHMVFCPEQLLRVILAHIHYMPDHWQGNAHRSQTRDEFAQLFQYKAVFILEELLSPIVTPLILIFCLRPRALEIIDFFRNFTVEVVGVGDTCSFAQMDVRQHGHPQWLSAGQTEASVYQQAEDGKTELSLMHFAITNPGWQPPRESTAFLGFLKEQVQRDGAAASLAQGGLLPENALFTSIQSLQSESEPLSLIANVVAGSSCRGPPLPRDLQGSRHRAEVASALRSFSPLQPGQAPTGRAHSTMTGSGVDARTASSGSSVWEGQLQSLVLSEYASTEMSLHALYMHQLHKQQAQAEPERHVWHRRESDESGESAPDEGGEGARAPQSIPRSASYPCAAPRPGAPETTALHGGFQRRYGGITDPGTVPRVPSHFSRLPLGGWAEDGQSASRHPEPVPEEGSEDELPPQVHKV
The assay is described as follows: co-IP; HEK-DC-SIGN cells transfected with HA-ATG9 constructs, treated or not with ManLAM for 30 min; lysates on Protein A/G sepharose beads pre-coated with anti-HA overnight; blot for DC-SIGN.

In assay [3] the target is T2, HA-ATG9 N99D (UniProt Q7Z3C6).
T2 sequence: T1 sequence with N99D
Described as above.

Numbering of substitutions follows the chain as printed. Results are given in words; binding and its absence hold for the method and conditions named. Binding seen in cells or lysates may run through a third protein. Some binding calls cover weakened binding; strength is not graded here. For part of these data: Sequences can lack the tags named with a protein.

For the substance “wild-type DC-SIGN (from UniProt Q9NNX6 1-404) (receptor)”, the binding entry in assay [1] is listed as “binds”.
For the substance “DC-SIGN stably expressed in HEK-DC-SIGN cells (from UniProt Q9NNX6 1-404) (receptor)”, the binding entry in assay [2] and in assay [3] was “binds” each time.
